According to patent US20120020878A1, “FUSOGENIC PROPERTIES OF SAPOSIN C AND RELATED PROTEINS AND PEPTIDES FOR APPLICATION TO TRANSMEMBRANE DRUG DELIVERY SYSTEMS” (CHILDREN'S HOSPITAL MEDICAL CENTER, priority 2008, published 2012):

B1: saposin C(S37W): saposin C with a Trp at residue 37 (i.e., in the middle) (protein, UniProt P07602 311-390, looked up, variant S37W)
Saposin-C: SDVYCEVCEFLVKEVTKLIDNNKTEKEILDAFDKMCWKLPKSLSEECQEVVDTYGSSILSILLEEVSPELVCSMLHLCSG
modifications: Saposin-C
B2: Saposin A: saposin A, member of the saposin family derived from prosaposin (protein, UniProt P07602 60-142, looked up)
Saposin-A: SLPCDICKDVVTAAGDMLKDNATEEEILVYLEKTCDWLPKPNMSASCKEIVDSYLPVILDIIKGEMSRPGEVCSALNLCESLQ
modifications: Saposin-A
notes: saposin A, member of the saposin family derived from prosaposin
B3: Saposin B: recombinant saposin B, member of the saposin family derived from prosaposin (protein, UniProt P07602 195-273, looked up)
Saposin-B: GDVCQDCIQMVTDIQTAVRTNSTFVQALVEHVKEECDRLGPGMADICKNYISQYSEIAIQMMMHMQPKEICALVGFCDE
modifications: Saposin-B
notes: recombinant saposin B, member of the saposin family derived from prosaposin

Assay: Circular dichroism (195-250 nm) analyses of saposins with various phospholipids
Format: physicochemical
Excerpt: To determine the specificity of saposin C-phospholipid interaction, a liposomal system is developed using CD, fluorescence emission shifts, and fluorescence quenching methods. Mutated saposins C's, produced to contain individual Trp (W), are termed saposin C(0W), (S37W), and (81W). These Trp-labeled saposin C's are as follows: saposin C(0W) has a Trp preceding the first NH2-terminal amino acid of mature saposin C, saposin C(S37W) has a Trp at residue 37 (i.e., in the middle), and saposin C(81W) has a Trp after the last COOH-terminal amino acid. These substitutions had no effect on the activation properties or CD spectra of saposin C.
Using CD spectroscopy, relative secondary structural changes of recombinant saposins are induced by membrane binding.
No changes are observed with saposin A and B in the PS (18:1,1) complexes. […] The CD data are collected on a Jasco 710 instrument, and deconvoluted using Yang's method (see Chang, C. T., Wu, C. S., and Yang, J. T. Anal. Biochem (1978) 91, 13-31).

| Molecule | effect of Trp substitution on CD spectra | relative secondary structural changes induced by membrane binding |
| --- | --- | --- |
| B1 | no effect | – |
| B2 | – | No changes |
| B3 | – | No changes |
